Experimental findings from paper PMC6413005 are described below.

Chains of the proteins cited; added tags and fusions are not shown. Residues count along the entry.
UniProt P08195, residues 102-630: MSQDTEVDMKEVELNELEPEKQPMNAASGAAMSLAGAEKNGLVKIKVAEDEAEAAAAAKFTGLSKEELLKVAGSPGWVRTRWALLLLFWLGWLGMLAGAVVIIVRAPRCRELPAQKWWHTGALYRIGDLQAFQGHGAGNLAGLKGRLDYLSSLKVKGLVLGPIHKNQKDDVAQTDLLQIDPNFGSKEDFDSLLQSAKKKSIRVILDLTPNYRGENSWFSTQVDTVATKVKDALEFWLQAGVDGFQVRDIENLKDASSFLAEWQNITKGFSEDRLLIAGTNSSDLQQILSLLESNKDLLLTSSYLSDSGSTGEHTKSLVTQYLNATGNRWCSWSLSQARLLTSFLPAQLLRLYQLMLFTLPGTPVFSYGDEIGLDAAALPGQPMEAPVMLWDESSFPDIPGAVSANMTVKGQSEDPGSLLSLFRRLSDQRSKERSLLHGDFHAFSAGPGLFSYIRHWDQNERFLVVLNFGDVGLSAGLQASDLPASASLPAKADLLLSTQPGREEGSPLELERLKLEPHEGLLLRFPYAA

Test [1] concerns the target human 4F2hc (SLC3A2), His-tagged heavy subunit (human) (UniProt P08195). Briefly: native gel or EMSA; BN-PAGE (4-16% gradient gel) of the Ni-NTA purified, co-expressed complex in LMNG/CHS, 5 ug per lane; Coomassie stain and Western blots with anti-His (4F2hc) and anti-Strep (LAT2) antibodies; both purified. (In general: A gel shift assay detects complexes by their altered migration in electrophoresis.)

The target is the same in test [2]. Description: cryo-EM structure; single particle cryo-EM with Volta phase plate, 200 kV FEI Tecnai F20, Falcon III; purified complex at 300 ug/mL in 20 mM Bis-Tris propane pH 6.8, 150 mM NaCl, 2% glycerol, 0.01% LMNG/CHS; 47,933 particles, ~13 Å; both purified.

These are yes or no findings as the source states them, for the method shown. Some binding calls cover weakened binding; strength is not graded here. Tags and fused reporters may be left off the sequences shown.

B1: human LAT2 (SLC7A8), Strep-tagged light subunit (protein, UniProt Q9UHI5 1-535)
chain: MEEGARHRNNTEKKHPGGGESDASPEAGSGGGGVALKKEIGLVSACGIIVGNIIGSGIFVSPKGVLENAGSVGLALIVWIVTGFITVVGALCYAELGVTIPKSGGDYSYVKDIFGGLAGFLRLWIAVLVIYPTNQAVIALTFSNYVLQPLFPTCFPPESGLRLLAAICLLLLTWVNCSSVRWATRVQDIFTAGKLLALALIIIMGIVQICKGEYFWLEPKNAFENFQEPDIGLVALAFLQGSFAYGGWNFLNYVTEELVDPYKNLPRAIFISIPLVTFVYVFANVAYVTAMSPQELLASNAVAVTFGEKLLGVMAWIMPISVALSTFGGVNGSLFTSSRLFFAGAREGHLPSVLAMIHVKRCTPIPALLFTCISTLLMLVTSDMYTLINYVGFINYLFYGVTVAGQIVLRWKKPDIPRPIKINLLFPIIYLLFWAFLLVFSLWSEPVVCGIGLAIMLTGVPVYFLGVYWQHKPKCFSDFIELLTLVSQKMCVVVYPEVERGSGTEEANEDMEEQQQPMYQPTPTKDKDVAGQPQP
Take B1: the binding entry in test [1] and in test [2] was “binds” each time.
